This is one part of the list.
tested on: T1, CTL2-GFP (C. trachomatis L2/434/Bu, GFP-expressing); design: species or system HeLa; Intracellular C. trachomatis growth in HeLa cells, bulk GFP fluorescence relative to DMSO; settings: bulk GFP, single well; 28.5 h, 10 µM; inhibitor
T1 construct: L2/434/Bu, GFP-expressing

Compound | % of control remaining
CN1CCCN(c2nc(-c3cccc(C(F)(F)F)c3)cn3ccnc23)CC1 [CBK066519] | 150.809%
Nc1nc(COn2c(-c3ccccc3)nc3ccccc3c2=O)nc(-c2ccccc2O)n1 [CBK266689] | 129.127%
COc1ccc(C(NC(=O)C2CCCN(C(=O)NC(=O)c3ccccc3)C2)c2ccccc2C)cn1 (stereo not shown) [CBK075023] | 100%
C=C1C2(C(=O)N3CCC(Oc4cccnc4)CC3)CCC(C2)C1(C)C (stereo not shown) [CBK282082] | 84.2559%
O=C(Nc1nnc(Cc2cccs2)o1)c1ccccc1 [CBK287831] | 107.066%
Cc1ncc([N+](=O)[O-])n1Cc1nnc(S)n1C [CBK267873] | 117.523%
Cc1cccc(-c2ncc(NC(=O)COc3ccc4ccccc4c3)nc2-c2ccc(N(C)C)cc2)c1 [CBK037575] | 76.1977%
Cc1nc(SCC(=O)O)nc(O)c1CCC(C)C [CBK269920] | 79.7596%
Cc1cc(Cl)c(S(=O)(=O)Nc2ccc(I)cc2)cc1OCC(N)=O [CBK266418] | 176.626%
CS(=O)(=O)Nc1ncc(Br)cc1C(=O)NCc1ccc(F)cc1 [CBK076538] | 127.585%
CCOc1ccc(S(=O)(=O)N(C)CC(=O)O)cc1 [CBK270032] | 144.932%
O=c1c2c(n3c(S)nnc3n1Cc1ccco1)-c1ccccc1CC21CCCCC1 [CBK265271] | 135.754%
CCCCN(CC)S(=O)(=O)c1ccc(-n2ncc(Cl)c(Cl)c2=O)cc1 [CBK305036] | 47.8531%
CC(C)N(C(=O)Cn1cccc2cc(C(F)F)nc1-2)C(C)C [CBK285012] | 114.003%
CN1CCN(CCC(=O)Nc2ccc3c(c2)CCC3)CC1 [CBK264197] | 120.642%
COc1ccc(CN(Cc2ccccc2OC)[C@@H]2COC[C@H]2c2ccc(F)cc2)cc1 [CBK286484] | 79.1014%
CCN(CC)c1ccc(C(=O)CN2CCC(Oc3nccnc3OCc3cccnc3)CC2)cc1 [CBK083167T] | 112.738%
O=C(NCC1CCCO1)C(=O)Nc1ccccc1F (stereo not shown) [CBK263557] | 135.893%
Cc1ccc(COc2cc(C(=O)NCc3ccccn3)c3ccccc3n2)cc1 [CBK294403] | 105.426%
Cc1cc(NC(=O)c2ccccc2)n(-c2nc(C)c(C)c(=O)[nH]2)n1 [CBK287655] | 105.963%
CC/C(=C/c1sc2ccc3ccccc3c2[n+]1CCCS(=O)(=O)[O-])SC [CBK260901] | 98.1494%
COc1ccccc1N1CCN(C(=O)CCCC(=O)O)CC1 [CBK286904] | 134.812%
O=C(NCc1ccccn1)C(=O)N/N=C/c1ccccc1O [CBK262157] | 109.501%
O=C(OCc1cc2ccccc2cn1)N1CCOCC1 [CBK200121] | 109.263%
O=C(NCCN1CCN(Cc2ccccc2Cl)CC1)Nc1ccccc1 [CBK268039] | 96.9929%
Cc1ccc(C(=O)N2C3CCC2CC(O)(c2cccnc2F)C3)o1 (stereo not shown) [CBK284423] | 116.676%
O=C(O)COc1ccc(NC(=O)C(c2ccccc2)c2ccccc2)cc1 [CBK264250] | 136.873%

Compound | % of control remaining
Cc1ccccc1COc1cccc2c1CCCC2 [CBK002562] | 100.821%
CS(=O)(=O)N1CC=CC1C(=O)NCCCc1ccc(F)cc1 (stereo not shown) [CBK282631] | 106.234%
O=C(NC(Cc1ccsc1)c1nccs1)C1CCOCC1 (stereo not shown) [CBK282824] | 142.047%
COc1ccc(/C=N/Nc2ccc([N+](=O)[O-])cc2)c(C(=O)O)c1OC [CBK261984] | 118.102%
c1ccc(N2CCN(c3cccc(-c4ccco4)n3)CC2)nc1 [CBK037662] | 92.4568%
CCNc1cc(-c2cccc(N(C)C)c2)ncn1 [CBK090878] | 96.447%
CC(C)(C)C1CCc2c(sc(NC(=O)CCC(=O)O)c2C(=O)Nc2ccccc2Cl)C1 (stereo not shown) [CBK264146] | 100%
O=[N+]([O-])c1ccccc1CN1CCN(C/C=C/c2ccccc2)CC1 [CBK261518] | 112.036%
Cc1cn(S(=O)(=O)c2ccc(Cl)cc2)cn1 [CBK026492] | 110.398%
O=C(NCc1ccc(F)cc1)c1ncoc1-c1cccs1 [CBK283976] | 94.8885%
O=C(CN1CCSCC1)NNC(=S)Nc1ccccc1 [CBK262445] | 100%
O=C(c1ccccc1)c1cc(Cl)ccc1-n1ccnc1 [CBK012383] | 111.467%
Cc1cc(NC(=O)C(C)Oc2ccccc2)nc2c1c(=O)oc1ccccc12 (stereo not shown) [CBK291153] | 128.947%
O=C(CSCc1ccc(Br)cc1)N1CCN(Cc2ccc3c(c2)OCO3)CC1 [CBK268059] | 122.654%
CC1CCc2c(sc3ncnc(OCC(=O)NC4CCCC4)c23)C1 (stereo not shown) [CBK305893] | 114.796%
Cc1nn(C)cc1-c1cncn1CC(C)Oc1ccccc1Cl (stereo not shown) [CBK281739] | 133.613%
O=C(O)COCC(=O)N1CCCC(c2nc(-c3ccccc3)c3ccccn23)C1 (stereo not shown) [CBK046806] | 210.855%
Cc1cc(C)nc(NC(=O)COc2ccc([N+](=O)[O-])cc2)n1 [CBK265004] | 97.2865%
Brc1ccc(OCc2ccccc2)c(CNCc2ccccn2)c1 [CBK268340C] | 61.7155%
Cc1nccn1CCC1CCN(C(=O)c2cn3ccccc3n2)CC1 [CBK281868] | 133.108%
CCc1cccc(NC(=O)c2cnc(-c3ccc(Cl)cc3)c(-c3ccc(OC)nc3)c2)n1 [CBK036671] | 138.57%
CCC1C(c2ccc(C)cc2)=CCC(C(=O)NCCCN(C)C)C1C (stereo not shown) [CBK016514] | 27.683%
O=C(CSc1ccc2nnc(-c3ccccc3)n2n1)Nc1ccccc1 [CBK287513] | 164.064%
O=C(O)c1cccc(NS(=O)(=O)c2c(Cl)cc(C(F)(F)F)cc2Cl)c1 [CBK155721] | 113.37%
CCc1nc(CCn2ccc3nc(OC)c(C#N)cc3c2=O)no1 [CBK307668] | 116.774%
CC(/C=C/c1ccccc1)=N\NC(=O)C(C)Oc1ccc(Br)cc1 (stereo not shown) [CBK261212] | 100%
O=S(=O)(O)c1cccc2cccc(I)c12 [CBK301197N] | 172.252%

Compound | % of control remaining
CN(C)CCCN1C(=O)C(O)=C(C(=O)c2ccc(F)cc2)C1c1cccnc1 (stereo not shown) [CBK264531] | 100%
CCn1cncc1C(=O)N1CCCC1(C)C(=O)NC1CCCC1 (stereo not shown) [CBK281376] | 134.352%
Cc1nc(-c2ccccc2)sc1C(=O)C1=C(O)C(=O)N(CCN(C)C)C1c1ccccc1 (stereo not shown) [CBK266415] | 196.668%
CCN(CC)C(=O)CN(CCc1ccc(OC)c(OC)c1)C(=O)NCc1ccc(Cl)cc1 [CBK158742] | 93.4629%
O=C(CC1CCN(C(=O)Cc2ccccc2)CC1)NC1(c2ccccc2)CCCC1 [CBK285965] | 98.3308%
CCn1c(SCC(=O)N2CCCC2)nc2cc(C)[nH]c2c1=O [CBK288027] | 138.244%
Cc1nn(CCC(=O)NC2CCOc3ccccc32)c(C)c1Cl (stereo not shown) [CBK281684] | 113.559%
O=C(NCCc1cccs1)Nc1ccccc1OC(F)(F)F [CBK044873] | 112.195%
O=C(OCCC1SC(NC2CC3C=CC2C3)=NC1=O)c1c(F)cccc1Cl (stereo not shown) [CBK200061T] | 144.161%
Nc1ncn(CC(O)CO)c2nc(N3CCOCC3)nc1-2 (stereo not shown) [CBK009231] | 106.911%
c1ccc2sc(CCSCCc3nc4ccccc4s3)nc2c1 [CBK261036] | 100.938%
CC(=O)N1CCc2c([nH]c3ccccc23)C1CCN(C)Cc1ccc(F)cc1 (stereo not shown) [CBK066969] | 151.04%
CNC(=O)CN1C(=O)CC2(C1=O)C(=O)N(CCOC)c1ccc(C)cc12 (stereo not shown) [CBK075401] | 119.502%
O=c1[nH]c2ncc(-c3cncc4ccccc34)nc2n1Cc1ccccc1 [CBK065113] | 131.513%
C[C@]12CN(Cc3ccc(F)cc3)C[C@H]1NC(=O)c1ccccc1C2=O [CBK284728] | 133.588%
O=C(Nc1ccc(Cl)cc1)N1CCN(CCCCc2ccc(F)cc2)CC1 [CBK017951C] | 118.68%
COC(=O)c1ccccc1NC(=O)CSc1nc(C)cc(C(F)(F)F)n1 [CBK268682] | 148.771%
CC1CCc2nc(NC(=O)CC3CCN(C(=O)Cc4ccccc4)CC3)sc2C1 (stereo not shown) [CBK286509] | 127.91%
COC(=O)c1csc2c1NC1(CCC1)[C@@H]1C[C@@H](O)[C@@H](O)[C@H]21 [CBK303255] | 81.5779%
Cc1ccc2ccccc2c1Cn1cc(-c2ccc([N+](=O)[O-])cc2)nc1SCC(=O)NC(C)(C)C [CBK264493] | 88.4919%
CC(C)(C)SCCNc1nc(Cl)nc(N2CCSCC2)n1 [CBK018768] | 140.099%
Cc1nnnn1-c1cc(NC(=O)NCCc2ccnn2C)ccc1F [CBK306428] | 129.602%
COc1ccc(S(=O)(=O)NCCc2ccc(S(N)(=O)=O)cc2)cc1[N+](=O)[O-] [CBK267598] | 141.507%
COC(=O)c1ccsc1NS(=O)(=O)c1ccc(C)c([N+](=O)[O-])c1 [CBK039061] | 135.087%
Cc1nonc1NC(=O)Nc1ccncc1 [CBK260982] | 95.3408%

Shown as tab-separated lines: 3 of the compounds above.
Compound	% of control remaining
O=C(c1ccccc1)c1cc(Cl)ccc1-n1ccnc1 [CBK012383]	111.467%
Cc1cc(NC(=O)C(C)Oc2ccccc2)nc2c1c(=O)oc1ccccc12 (stereo not shown) [CBK291153]	128.947%
O=C(CSCc1ccc(Br)cc1)N1CCN(Cc2ccc3c(c2)OCO3)CC1 [CBK268059]	122.654%
